Primary screen of a compound library

Chains of the proteins cited; added tags and fusions are not shown. Residues count along the entry.
UniProt I6X8D2, whole entry: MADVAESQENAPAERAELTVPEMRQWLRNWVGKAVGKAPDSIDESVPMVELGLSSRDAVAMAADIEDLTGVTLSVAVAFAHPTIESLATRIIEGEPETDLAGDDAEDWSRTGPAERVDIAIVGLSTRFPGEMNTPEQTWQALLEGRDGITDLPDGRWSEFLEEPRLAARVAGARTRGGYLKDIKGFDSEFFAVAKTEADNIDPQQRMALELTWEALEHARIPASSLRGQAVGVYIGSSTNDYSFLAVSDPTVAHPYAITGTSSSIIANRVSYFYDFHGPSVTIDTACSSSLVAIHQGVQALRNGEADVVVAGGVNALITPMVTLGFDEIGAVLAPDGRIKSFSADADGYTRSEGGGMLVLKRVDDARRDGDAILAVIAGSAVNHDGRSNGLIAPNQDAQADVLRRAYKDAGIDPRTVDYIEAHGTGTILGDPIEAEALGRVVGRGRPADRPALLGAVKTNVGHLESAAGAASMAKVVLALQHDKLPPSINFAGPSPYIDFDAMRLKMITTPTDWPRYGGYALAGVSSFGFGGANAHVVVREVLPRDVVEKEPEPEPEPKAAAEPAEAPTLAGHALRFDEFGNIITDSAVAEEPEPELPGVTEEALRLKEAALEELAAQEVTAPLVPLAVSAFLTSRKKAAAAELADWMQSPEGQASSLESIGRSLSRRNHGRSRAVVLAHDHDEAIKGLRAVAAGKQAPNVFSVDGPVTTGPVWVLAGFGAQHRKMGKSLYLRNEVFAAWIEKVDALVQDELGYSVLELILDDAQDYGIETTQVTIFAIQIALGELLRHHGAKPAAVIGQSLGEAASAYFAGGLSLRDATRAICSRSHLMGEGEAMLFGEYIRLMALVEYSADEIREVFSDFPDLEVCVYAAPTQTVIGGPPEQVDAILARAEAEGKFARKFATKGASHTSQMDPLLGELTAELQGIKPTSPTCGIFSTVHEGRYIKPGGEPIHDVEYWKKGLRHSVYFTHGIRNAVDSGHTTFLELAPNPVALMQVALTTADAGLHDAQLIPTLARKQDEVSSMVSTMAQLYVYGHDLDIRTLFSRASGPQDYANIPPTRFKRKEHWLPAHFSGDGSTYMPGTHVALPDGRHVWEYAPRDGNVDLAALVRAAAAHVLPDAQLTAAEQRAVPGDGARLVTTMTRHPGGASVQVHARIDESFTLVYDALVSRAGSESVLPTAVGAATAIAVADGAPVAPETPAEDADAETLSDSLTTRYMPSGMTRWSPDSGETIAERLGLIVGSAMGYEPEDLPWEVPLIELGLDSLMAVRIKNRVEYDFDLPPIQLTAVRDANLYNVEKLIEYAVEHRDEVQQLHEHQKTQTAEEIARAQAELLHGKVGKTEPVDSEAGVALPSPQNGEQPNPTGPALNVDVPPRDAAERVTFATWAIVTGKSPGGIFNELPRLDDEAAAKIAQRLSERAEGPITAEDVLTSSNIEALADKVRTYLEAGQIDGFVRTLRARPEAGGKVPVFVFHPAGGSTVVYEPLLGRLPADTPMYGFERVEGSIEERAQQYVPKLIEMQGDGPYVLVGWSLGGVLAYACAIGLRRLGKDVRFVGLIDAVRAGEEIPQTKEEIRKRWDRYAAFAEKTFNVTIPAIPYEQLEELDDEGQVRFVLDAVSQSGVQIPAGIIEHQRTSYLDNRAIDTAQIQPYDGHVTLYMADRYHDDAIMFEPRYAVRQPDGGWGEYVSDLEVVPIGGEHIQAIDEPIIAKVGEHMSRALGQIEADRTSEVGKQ
UniProt A4I591, 1-473: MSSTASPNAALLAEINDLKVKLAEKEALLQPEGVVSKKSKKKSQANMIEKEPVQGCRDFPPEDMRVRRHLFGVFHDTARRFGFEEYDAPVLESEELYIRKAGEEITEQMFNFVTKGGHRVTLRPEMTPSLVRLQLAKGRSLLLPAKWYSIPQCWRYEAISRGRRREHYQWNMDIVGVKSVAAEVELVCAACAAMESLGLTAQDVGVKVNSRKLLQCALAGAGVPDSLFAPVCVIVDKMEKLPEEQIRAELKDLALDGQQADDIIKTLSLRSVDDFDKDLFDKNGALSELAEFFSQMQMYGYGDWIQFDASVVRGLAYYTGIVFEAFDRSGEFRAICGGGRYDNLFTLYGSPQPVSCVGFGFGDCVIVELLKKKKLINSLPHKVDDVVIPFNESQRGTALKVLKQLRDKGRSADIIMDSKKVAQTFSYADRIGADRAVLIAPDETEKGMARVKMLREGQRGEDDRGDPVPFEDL
UniProt P9WPC5, whole entry: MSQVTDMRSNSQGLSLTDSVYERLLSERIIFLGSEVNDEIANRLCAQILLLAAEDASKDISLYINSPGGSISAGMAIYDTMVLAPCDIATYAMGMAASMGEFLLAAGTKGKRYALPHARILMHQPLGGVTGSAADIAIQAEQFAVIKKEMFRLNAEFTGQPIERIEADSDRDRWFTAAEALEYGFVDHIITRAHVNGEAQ
UniProt P9WPC3, whole entry partner: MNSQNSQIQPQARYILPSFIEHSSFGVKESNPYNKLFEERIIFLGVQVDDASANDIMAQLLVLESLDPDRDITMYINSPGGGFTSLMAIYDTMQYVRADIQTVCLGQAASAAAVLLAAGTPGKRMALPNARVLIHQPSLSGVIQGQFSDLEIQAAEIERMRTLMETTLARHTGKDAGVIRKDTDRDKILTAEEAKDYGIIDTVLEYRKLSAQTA
UniProt P9WNZ1, whole entry: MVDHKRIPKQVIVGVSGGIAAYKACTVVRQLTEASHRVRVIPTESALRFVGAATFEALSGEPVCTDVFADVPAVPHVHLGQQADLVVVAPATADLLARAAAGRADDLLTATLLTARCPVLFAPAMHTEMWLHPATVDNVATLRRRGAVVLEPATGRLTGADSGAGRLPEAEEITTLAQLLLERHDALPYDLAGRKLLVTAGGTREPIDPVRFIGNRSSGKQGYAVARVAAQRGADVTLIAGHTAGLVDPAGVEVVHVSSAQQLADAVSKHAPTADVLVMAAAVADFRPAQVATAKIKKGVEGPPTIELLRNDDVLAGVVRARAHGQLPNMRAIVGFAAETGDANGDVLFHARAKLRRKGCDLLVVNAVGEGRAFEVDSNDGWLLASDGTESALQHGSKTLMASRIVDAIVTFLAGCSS

Pks13 thioesterase: 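Enzyme assay of the thioesterase domain of polyketide synthase 13; the read-out is not stated. Target: Polyketide synthase Pks13, Mycobacterium tuberculosis (UniProt I6X8D2). Concentration: 30 µM. The record gives no direction; the compounds picked for IC50 retests had high values, so higher reads as stronger inhibition. Of about 67,000 compounds tested this way, about 300 (0.46%) reached 50% or more in at least one test.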
LiHisRS: 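Enzyme assay of histidyl-tRNA synthetase; the read-out is not stated. Target: Histidine-tRNA ligase, Leishmania infantum (UniProt A4I591). Tested at 30 µM. Higher reads as stronger inhibition (inferred: compounds with an IC50 in retests scored well above the rest). The assay is labelled LdHisRS but filed under L. infantum. Of about 69,000 compounds tested this way, about 410 (0.6%) reached 50% or more in at least one test.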
Leishmania in macrophages: 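Cell assay of Leishmania donovani living inside macrophages; the read-out is not stated. Compounds at 30 µM. Direction is inferred from retests: higher values go with stronger inhibition. Of about 69,000 compounds tested this way, about 1,000 (1.5%) reached 50% or more in at least one test.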
ClpP1P2: 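Protease assay of ClpP1P2, read by the AMC dye that it sets free. Target: ClpP1P2, Mycobacterium tuberculosis (UniProt P9WPC5 and UniProt P9WPC3). Concentration: 50 µM. Higher reads as stronger inhibition, judged from the few compounds that gave an IC50. Most other retested compounds had strongly negative values. About 69,000 compounds were tested under these conditions; 0.015% (about 10) showed 50% or more at least once.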
Toxoplasma: 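Assay of Toxoplasma gondii numbers, read through their beta-galactosidase reporter with a colour substrate. Tested at 10 µM. Higher reads as fewer parasites (inferred from which compounds were picked for retests). Size under these conditions: about 67,000 compounds, about 260 of them at 50% or above in at least one test.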
CoaBC: 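Enzyme assay of CoaBC with a phosphate dye (Biomol Green) read at 650 nm. Target: Coenzyme A biosynthesis protein CoaBC, Mycobacterium tuberculosis (UniProt P9WNZ1). Tested at 30 µM. Higher reads as stronger inhibition, judged from the few compounds that gave an IC50. Most strong results did not repeat in a second test. About 67,000 compounds were tested under these conditions; 0.06% (about 40) showed 50% or more at least once.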

The filed quantity is “Percent Effect” (%).
How 0% and 100% were set is not recorded. Most values in the screen are low, and negative values occur.
Compounds were drawn at random from those tested, without regard to their results.

compound: O=C(O)C(F)(F)F.c1ccn(Cc2nnc3n2CCCN(Cc2ccoc2)C3)c1
Leishmania in macrophages: 25.47%
Toxoplasma: 8.338%

compound: Cc1ccc(CN2CC[C@]3(C[C@H](OCc4ccccn4)CO3)C2)o1
Pks13 thioesterase: 17.95%
LiHisRS: 12.82%
ClpP1P2: -5.614%
CoaBC: 9.774%

compound: CCn1cc(N2Cc3nc(N(C)C)ncc3C2=O)cn1
Pks13 thioesterase: -3.234%
LiHisRS: 10.34%
Leishmania in macrophages: 14.51%
ClpP1P2: 0.9886%
Toxoplasma: -3.973%
CoaBC: 2.771%

compound: CCCC(=O)N1CCC(Nc2nc(O)cc(-c3ccsc3)n2)CC1
Pks13 thioesterase: 5.582%
LiHisRS: 16.11%
Leishmania in macrophages: 10.39%
ClpP1P2: -16.68%
Toxoplasma: -2.618%
CoaBC: 3.425%

compound: CCCc1cc(CN(C)C2CSCCSC2)n[nH]1
Pks13 thioesterase: -21.35%
LiHisRS: 0%
Leishmania in macrophages: 1.35%
ClpP1P2: -7.015%
Toxoplasma: 1.67%
CoaBC: 0%

compound: Cc1csc2c(=O)n(C(C)Cc3cccnc3)cnc12 (centres unmarked)
Pks13 thioesterase: -23.01%
LiHisRS: 17.46%
Leishmania in macrophages: -1.658%
ClpP1P2: 0.4423%
Toxoplasma: -0.6923%
CoaBC: -1.242%

compound: CCC1CN(Cc2cccc(C(=O)N(C)C)c2)CCN1CCOC (centres unmarked)
Pks13 thioesterase: 0.513%
LiHisRS: 12.07%
Leishmania in macrophages: 22.78%
ClpP1P2: -18.96%
Toxoplasma: -3.415%
CoaBC: 3.916%

compound: O=C(Cc1ccccc1O)Nc1ccc(N2CCCC2)nc1
Pks13 thioesterase: -6.636%
LiHisRS: 23.94%
Leishmania in macrophages: 8.013%
ClpP1P2: 3.247%
Toxoplasma: 7.334%
CoaBC: 7.323%

compound: COc1cccc([C@@H]2CCN(Cc3ccc4ccccc4n3)C[C@H]2O)c1
Pks13 thioesterase: -11.92%
LiHisRS: 32.38%
Leishmania in macrophages: 40.26%
ClpP1P2: -6.218%
Toxoplasma: -2.635%
CoaBC: 5.263%

compound: O=C(COC1CCCC1)N1CCCC1c1noc(C2CC2)n1 (centres unmarked)
Pks13 thioesterase: -1.175%
LiHisRS: 4.839%
Leishmania in macrophages: 9.061%
ClpP1P2: -6.316%
CoaBC: 0.369%

compound: COCCn1ccnc1C1CCN(C(=O)C(O)c2ccc(F)cc2)CC1 (centres unmarked)
LiHisRS: 13.11%
Leishmania in macrophages: -1.928%
ClpP1P2: -9.224%
Toxoplasma: 10.04%
CoaBC: -1.279%

compound: Cn1ccnc1COc1ccc(CSc2nncn2C2CC2)cc1
Pks13 thioesterase: -23.43%
LiHisRS: 14.52%
Leishmania in macrophages: 12.32%
ClpP1P2: -0.2266%
Toxoplasma: 8.816%
CoaBC: 3.423%

compound: COc1ccc(OCCNc2cccc(C(=O)N3CCOCC3)c2)cc1
Pks13 thioesterase: 20.47%
LiHisRS: 15.29%
Leishmania in macrophages: 2.334%
ClpP1P2: -21.44%
Toxoplasma: 3.246%
CoaBC: 6.853%

Once more, the final 2:

* Cn1ccnc1COc1ccc(CSc2nncn2C2CC2)cc1 | Pks13 thioesterase: -23.43%; LiHisRS: 14.52%; Leishmania in macrophages: 12.32%; ClpP1P2: -0.2266%; Toxoplasma: 8.816%; CoaBC: 3.423%
* COc1ccc(OCCNc2cccc(C(=O)N3CCOCC3)c2)cc1 | Pks13 thioesterase: 20.47%; LiHisRS: 15.29%; Leishmania in macrophages: 2.334%; ClpP1P2: -21.44%; Toxoplasma: 3.246%; CoaBC: 6.853%

The values are deposited in ChEMBL (CHEMBL3988442, “University of Dundee, Small-Polar-MMV Screening Library” (2021)).